Reference: patent publication US8034817B2, “Treatment of bacterial diseases of the respiratory organs” (Bayer Pharma Aktiengesellschaft, priority 2003, dated 2011)
Read-outs that look alike come from different tables or passages of the source.

Conditions: for Lung concentration: 0.25 h, average for 3 animals; for AUC / Cmax: lungs
[1] = rats, 7.5 mg/kg intratracheally as suspension, 7.5 mg/kg
[2] = intratracheal administration, 7.5 mg/kg, rats
[3] = rats, 7.5 mg/kg intratracheally as solution
[4] = rats, 7.5 mg/kg intravenously as solution

| Compound | Lung concentration (7.5 mg/kg intratracheally as suspension, 7.5 mg/kg) [µg/mL] | AUC [1] [ng·h/mL] | Cmax [1] [ng/mL] | AUC (lungs), factor compared with intravenous administration of ciprofloxacin hydrochloride [2] | Cmax (lungs), factor compared with intravenous administration of ciprofloxacin hydrochloride [2] | Lung concentration (7.5 mg/kg intratracheally as solution) [µg/mL] | AUC [3] [ng·h/mL] | Cmax [3] [ng/mL] | AUC [4] [ng·h/mL] | Cmax [4] [ng/mL] |
| --- | --- | --- | --- | --- | --- | --- | --- | --- | --- | --- |
| O=C(O)c1cn(C2CC2)c2cc(N3CCNCC3)c(F)cc2c1=O [ciprofloxacin betaine (laboratory product)] | 49.1 | 124000 | 49100 |  |  |  |  |  |  |  |
| O=C(O)c1cn(C2CC2)c2cc(N3CCNCC3)c(F)cc2c1=O [ciprofloxacin betaine (micronized), ciprofloxacin betaine] |  | 304000 | 76000 | 612 | 125 |  |  |  |  |  |
| Cl.O=C(O)c1cn(C2CC2)c2cc(N3CCNCC3)c(F)cc2c1=O [ciprofloxacin hydrochloride] |  |  |  |  |  | 6.65 | 3200 | 6650 | 497 | 610 |
